This is one part of the list.
What follows are compounds tested against ZNF579 (UniProt Q8NAF0) (assay: log2 fold change, soluble protein after heating vs DMSO (PISA); higher = thermal stabilisation; K562 cells, 10 uM, 30 min; active = over 0.2 and 3.5 SD of the protein, either way, in both replicates (recomputed)).
In short: (§1)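 Soluble protein was defined as the supernatant after 21,000xg for 90 min. It came from K562 cells at 2×10^6 cells/mL given 10 μM compound for 30 min, heated in aliquots for 3 min across 48°C-58°C, pooled, and extracted in PBS with 0.5% NP-40 at 4°C, and was quantified by TMTpro 16plex LC-MS/MS with equalised channel sums. Thermal stability against control samples, from duplicates, is reported as log2 fold change.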

The chains behind the UniProt entries cited, without tags or fusion partners. Where a name states a change or a piece, a line headed by the entry shows the natural chain unless it says otherwise.
UniProt Q8NAF0: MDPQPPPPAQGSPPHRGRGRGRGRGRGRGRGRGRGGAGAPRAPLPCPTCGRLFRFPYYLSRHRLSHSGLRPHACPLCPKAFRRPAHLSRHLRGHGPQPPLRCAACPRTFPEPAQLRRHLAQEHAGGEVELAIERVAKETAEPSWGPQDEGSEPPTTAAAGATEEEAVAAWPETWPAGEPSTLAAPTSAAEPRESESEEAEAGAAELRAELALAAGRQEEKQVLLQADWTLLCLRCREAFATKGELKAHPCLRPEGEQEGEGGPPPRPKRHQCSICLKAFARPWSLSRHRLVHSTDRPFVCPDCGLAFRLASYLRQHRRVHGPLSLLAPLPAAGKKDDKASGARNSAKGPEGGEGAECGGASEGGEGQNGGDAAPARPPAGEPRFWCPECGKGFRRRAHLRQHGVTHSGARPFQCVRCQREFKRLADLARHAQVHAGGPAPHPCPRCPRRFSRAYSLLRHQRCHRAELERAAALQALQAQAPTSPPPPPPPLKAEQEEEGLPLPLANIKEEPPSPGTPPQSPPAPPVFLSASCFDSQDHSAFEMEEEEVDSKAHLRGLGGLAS
UniProt Q9P0T4: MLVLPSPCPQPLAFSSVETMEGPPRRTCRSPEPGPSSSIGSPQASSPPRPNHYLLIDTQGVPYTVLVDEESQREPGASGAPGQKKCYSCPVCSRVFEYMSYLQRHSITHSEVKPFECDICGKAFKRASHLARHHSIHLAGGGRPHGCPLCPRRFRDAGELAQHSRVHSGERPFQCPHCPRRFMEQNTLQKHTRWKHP

log2 fold change, inactive:
NC(=O)c1cnc(N[C@@H]2CCCC[C@@H]2N)nc1Nc1cccc(-n2nccn2)c1 0.067
Cc1ccc(NC(=O)c2ccc(CN3CC[C@H](N(C)C)C3)c(C(F)(F)F)c2)cc1Nc1nccc(-c2cncnc2)n1 [bafetinib] 0.107
CO[C@H]1C[C@@H]2CC[C@@H](C)[C@@](O)(O2)C(=O)C(=O)N2CCCC[C@H]2C(=O)O[C@H]([C@H](C)C[C@@H]2CC[C@H](n3cnnn3)[C@H](OC)C2)CC(=O)[C@H](C)/C=C(\C)[C@@H](O)[C@@H](OC)C(=O)[C@H](C)C[C@H](C)/C=C/C=C/C=C/1C [zotarolimus] 0.099
C[C@@H](N)c1ccc(C(=O)Nc2ccnc3[nH]ccc23)cc1 0.102
Cc1nc(Nc2n[nH]c3c2CN(C(=O)N[C@H](CN(C)C)c2ccccc2)C3(C)C)c2sccc2n1 -0.115
C/C(=N\NC(=O)c1cccc(S(=O)(=O)N2CCOCC2)c1)c1cc(Cl)ccc1O 0.147
NC1(c2ccc(-c3nc4ccn5c(=O)[nH]nc5c4cc3-c3ccccc3)cc2)CCC1 -0.061
CCN(CCCOc1ccc2c(Nc3cc(CC(=O)Nc4cccc(F)c4)[nH]n3)ncnc2c1)CCOP(=O)(O)O [barasertib] 0.037
Cc1cn(-c2cc(NC(=O)c3ccc(C)c(Nc4nccc(-c5cccnc5)n4)c3)cc(C(F)(F)F)c2)cn1 [nilotinib] 0.105
COc1cc(Nc2ncc3c(n2)-c2ccc(Cl)cc2C(c2c(F)cccc2OC)=NC3)ccc1C(=O)O [alisertib] -0.082
COc1cc2ncnc(Nc3ccc(F)c(Cl)c3)c2cc1OCCCN1CCOCC1 [gefitinib] 0.111

What follows are compounds tested against ZNF581 (UniProt Q9P0T4) in the same assay as above.
In short: as §1

log2 fold change, inactive:
COc1cc(C(=O)O)ccc1NC(=O)[C@@H]1N[C@@H](CC(C)(C)C)[C@](C#N)(c2ccc(Cl)cc2F)[C@H]1c1cccc(Cl)c1F [idasanutlin] 0.229
CCCc1cc(C)[nH]c(=O)c1CNC(=O)c1cc(-c2ccnc(N3CCN(C)CC3)c2)cc2c1cnn2C(C)C 0.085
Cn1cc(-c2ccc3c(c2)CCN3C(=O)Cc2cccc(C(F)(F)F)c2)c2c(N)ncnc21 -0.195
O=C1c2ccccc2-c2n[nH]c3cccc1c23 0.034
CC(=O)c1cnc2ccc(-c3cc(Cl)c(O)c(Cl)c3)nc2c1N[C@H]1CC[C@H](CN(C)C)CC1 -0.086
O=C(O)c1ccc2c(c1)nc(Nc1cccc(Cl)c1)c1ccncc12 [silmitasertib] 0.051
O=C1NC(=NCc2cccs2)S/C1=C\c1ccc2ncccc2c1 -0.077
COc1cccc2cc(-c3nc([C@H]4CC[C@H](C(=O)O)CC4)n4ncnc(N)c34)[nH]c12 0.194
FC(F)(F)c1ccc(/C=C/c2nc(COc3ccc(CCCCn4ccnn4)cc3)co2)cc1 [mubritinib] -0.358
NC(=O)c1cnc(N[C@@H]2CCCC[C@@H]2N)nc1Nc1cccc(-n2nccn2)c1 -0.015
CO[C@H]1C[C@@H]2CC[C@@H](C)[C@@](O)(O2)C(=O)C(=O)N2CCCC[C@H]2C(=O)O[C@H]([C@H](C)C[C@@H]2CC[C@H](n3cnnn3)[C@H](OC)C2)CC(=O)[C@H](C)/C=C(\C)[C@@H](O)[C@@H](OC)C(=O)[C@H](C)C[C@H](C)/C=C/C=C/C=C/1C [zotarolimus] -0.107
C[C@@H](N)c1ccc(C(=O)Nc2ccnc3[nH]ccc23)cc1 0.222
C/C(=N\NC(=O)c1cccc(S(=O)(=O)N2CCOCC2)c1)c1cc(Cl)ccc1O 0.11
NC1(c2ccc(-c3nc4ccn5c(=O)[nH]nc5c4cc3-c3ccccc3)cc2)CCC1 -0.061
COc1cc(Nc2ncc3c(n2)-c2ccc(Cl)cc2C(c2c(F)cccc2OC)=NC3)ccc1C(=O)O [alisertib] 0

Source: the supplement of paper PMC10849652
